Data set [1] deals with GST-VANC21. Nature of the data set: EMSA. Conditions: 15 mM Tris-HCl pH 7.5, 300 mM NaCl, 3 mM MgCl2, 0.04% Triton X, 4% glycerol, 0.5 mM DTT, 30 ng poly:IC, 15 ul, 4 C 30 min; 0.15 pmol 32P-dsDNA, ~2.5 ug GST-VANC21; recombinant protein; protein details: N-terminal GST; label: 32P 5' end. (Mobility shift assays separate free from complexed probe on a gel.)
Data set [2] deals with GST-VANC21. Nature of the data set: competition with a labelled probe. Conditions: unlabeled competitor; 15 mM Tris-HCl pH 7.5, 300 mM NaCl, 3 mM MgCl2, 0.04% Triton X, 4% glycerol, 0.5 mM DTT, 30 ng poly:IC, 15 ul, 4 C 30 min; 0.15 pmol 32P-dsDNA, ~2.5 ug GST-VANC21; recombinant protein; protein details: N-terminal GST; label: 32P 5' end.
For data set [3], the system named is VANC6 (GST removed) (Arabidopsis thaliana (ddm1-1 cDNA)). Nature of the data set: EMSA. As to conditions: 15 mM Tris-HCl pH 7.5, 300 mM NaCl, 3 mM MgCl2, 0.04% Triton X, 4% glycerol, 0.5 mM DTT, 30 ng poly:IC, 15 ul, 4 C 30 min; 0.15 pmol 32P-dsDNA, ~2.5 ug GST-VANC21; recombinant protein; label: 32P 5' end.

Construct, isoform or probe ends are uncertain for at least one entry. For part of these data: The comparison behind a weaker result is the experiment's own reference, which may not be listed here. For part of these data: At least one verdict was read from the data and is not stated in words by the source.

As for “AAATTTAGTTAAACCTTAGCATTACGCGATATTACCAATT (double strand) [probe 7*]”, the binding result with GST-VANC21 [1] is given as “binds more weakly”.

Consider “AAATTTAGTTAAACCTTAGTATTACGCGATATTACCAATT (double strand) [probe 7]”, for which, in the data set on GST-VANC21 [1], the binding result is “binds”.

Turning to “AACGGCACAAACGACTGCGACGGCGATGGCAACGACAGCA (double strand) [probe 5]”, the binding result in the data set with GST-VANC21 [1] is “binds more weakly”.

As to “AATGTTTAAATAGCACCAGCATTACTTAGACACGTAGTAT (double strand) [probe 1*]”, the binding result in the data set with GST-VANC21 [1] was “binds more weakly”.

As for “AATGTTTAAATAGCACCAGTATTACTTAGACACGTAGTAT (double strand) [probe 1]”, the binding result with GST-VANC21 [2] and in the data set on GST-VANC21 [1] was “binds” throughout.

Turning to “AATTCCCCGTAATTACCAGCATTACACAGATACTCCTATT (double strand) [probe 2*]”, in the data set on GST-VANC21 [1], the binding result is on record as “binds more weakly”.

Take “AATTCCCCGTAATTACCAGTATTACACAGATACTCCTATT (double strand) [probe 2]”: the binding result in the data set with GST-VANC21 [2] and in the data set with GST-VANC21 [1] was “binds” in each case.

Turning to “AGATACTTCGGAATTGGTTTTCATGACGGACAGAAATGCA (double strand) [probe 4]”, in the data set on GST-VANC21 [1], the binding result was “binds more weakly”.

With “ATCCATAACACCAACTTAGCATTACCAGTAGTACTAATAT (double strand) [probe 6*]”, the binding result in the data set on GST-VANC21 [1] is “binds more weakly”.

On to “ATCCATAACACCAACTTAGTATTACCAGTAGTACTAATAT (double strand) [probe 6]”, for which the binding result with GST-VANC21 [1] is reported as “binds”.

For the sequence “ATTTCCCTTGTATTCTCAGCATTATCGTTAAATCCTAGTA (double strand) [probe 3*]”, the binding result in the data set with GST-VANC21 [1] is listed as “binds more weakly”.

As for “ATTTCCCTTGTATTCTCAGTATTATCGTTAAATCCTAGTA (double strand) [probe 3]”, the binding result in the data set with GST-VANC21 [1] was “binds”.

As to “GTAGCTAAGTTGTCCCAGTTGGCCGGTCGATACACATAA (double strand) [Supp Fig 12 probe 2]”, in data set [3], the binding result is on record as “binds”.

The values above are taken from PMC5735166.
